Results from article PMC9485235, “Structural insights into cyanobacterial RuBisCO assembly coordinated by two chaperones Raf1 and RbcX” (Cell Discovery, 2022).

Target: RbcX from Anabaena sp. PCC 7120, co-expressed in the ternary complex (Anabaena sp. PCC 7120)
Experiment: cryo-EM structure; RbcL–Raf1–RbcX ternary complex co-expressed in E. coli with GroEL-GroES, purified by Ni-NTA and gel filtration in 50 mM Tris-HCl pH 8.0, 20 mM NaCl, 5 mM MgCl2; ~2 mg/mL; D4 symmetry; 3.3 Å; both purified

B1: RuBisCO accumulation factor 1 (Raf1) from Anabaena sp. PCC 7120 (protein, UniProt Q8YLP6 1-361)
chain: MTELPPNAPNPENATNELAQELLRKLRQKQGNWVEWGQAIASLQKSGYNPQDIFEATGFEPVQQNQVIVGSQVYNSLEKSGASAATLAHYATRGSDVLYELRLLTHEERAAAGDLTFTHKVDADEAREIAKAIKDFSRFRILPEGFSNHPGDAVAYQAWKLARQYSDLQERSRLIARGLRFAHSETARKQIEQLLVDFTVVSQRPAPIPPFFRFDTEDELPRIVPVVGQLPLKAEELKAVPLVEEIEPFRLVKFSGEQAWVALPGWQVLLAAEDPVTILATSDRFPKQNQTEPGPVLVVVDRSQREWNDFSYFVVDHDGELDFQWFETKPEFPILGKVIILVRPRRILDENVTKDSWQIDE
binding: binds

These are yes or no findings as the source states them, for the method shown. Binding can be weak; no strength is given.
